Oligonucleotides screened, 5′ to 3′:
TPP: TPP riboswitch RNA three-way junction, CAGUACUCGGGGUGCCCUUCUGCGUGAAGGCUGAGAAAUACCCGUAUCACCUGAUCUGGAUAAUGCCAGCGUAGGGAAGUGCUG. About 160 hits among about 24,000 compounds.

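Each compound is printed as two spots on a slide made to bind it covalently, so it has no test concentration; the read-out is fluorescence of the bound, labelled oligonucleotide. For the PreQ1, TPP and SAM-II riboswitches the laboratory earlier reported (doi:10.1038/s41467-019-09493-3) 1 µM RNA, 2 h, and a rule that included a mean Z-score above 3 (spot signal-to-noise against the whole library), a score well above that on a control array, and duplicate spots agreeing (coefficient of variation under 100). The data file gives only the calls; its cut-offs may differ, and compounds hitting several targets are kept. A missing hit is not proof of no binding, and a hit is not a measured affinity.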
Key: Y = hit, N = tested without a hit.
Compounds were drawn at random from those tested, without regard to their results.

structure,TPP
Cl.NCC12CC3CC(CC(Cl)(C3)C1)C2,N
Cc1[nH]c2ccccc2c1C=Cc1nc2ccccc2c(=O)n1CCCO,N
Nc1c(C(=O)NCCc2c[nH]c3ccccc23)sc2nc(-c3ccccn3)ccc12,Y
Nc1nc2c(s1)c(=O)[nH]c(=O)n2-c1ccc(Cl)cc1,N
CCOC(=O)CCC1(C(=O)OC)C(=O)CCCCC/C=C/1C(=O)OC (stereo not drawn),N
CCC(CO)NCc1ccc(-c2cccc(OC)c2)o1 (stereo not drawn),N
CC(Nc1cc(Cl)ccc1[N+](=O)[O-])C12CC3CC(CC(C3)C1)C2 (stereo not drawn),N
NC(=O)C[n+]1ccn2c(NC3CCCCC3)c(-c3ccc(N4CCOCC4)cc3)nc2c1,N
CC(=O)C1=C(O)C(=O)N(CCO)C1c1ccccc1 (stereo not drawn),N
Cc1ccc2oc(-c3ccccc3)cc(=[NH+]CCO)c2c1,N
Cc1nc(CCN)cc(N(C)Cc2cccc3cnccc23)n1,N
CCOC(=O)C1=C(N)OC2=C(C(=O)CC(C)(C)C2)C1c1c(F)cccc1F (stereo not drawn),N
Cc1ccccc1SCC(=O)N1CCC2(CCNCC2)CC1,N
CS(=O)(=O)Nc1cccc(NC(=O)N(CCCO)Cc2cccs2)c1,N
Nc1c(C(=O)Nc2ccc(F)c(F)c2)nnn1Cc1ccc(F)cc1,N
Cc1ccc(NS(=O)(=O)c2cc(Br)cnc2N)c(Cl)c1,N
Cc1ccccc1OCCCn1c(CCCO)nc2ccccc21,N
Cc1ccc2c(CNCc3ccccc3)c(C(=O)O)[nH]c2c1,N
CCCCOc1ccc(NC(=O)CSc2nnc(N)s2)cc1,N
COc1ccc(S(=O)(=O)[C@H]2CS(=O)(=O)C[C@@H]2NCCc2ccccc2F)cc1,N
CCOC(=O)c1ccc(NC2=NS(=O)(=O)C(c3ccc(C)c(C)c3)=C2C)cc1,N
CC(C)OC(=O)C1=C(N)OC2=C(C(=O)CC(C)(C)C2)C1c1ccc(Cl)cc1 (stereo not drawn),N
c1csc(-c2nc3cnccn3c2Nc2ccc3c(c2)OCCO3)c1,N
Cc1cc(NC(C)c2ccccc2)n2nc(C)c(-c3ccc(F)cc3)c2n1 (stereo not drawn),N
COC(=O)C1=C(C)OC(N)=C(C#N)C1c1ccccc1I (stereo not drawn),N
O=C1c2cc([N+](=O)[O-])ccc2-c2cc(Br)c(/N=C(\NO)C(F)(F)F)cc21,N
O=C(Oc1cccc(NC2=NS(=O)(=O)c3ccccc32)c1)c1ccco1,N
COc1cccc(Nc2c(-c3ccccc3)c(=O)c2=O)c1,N
CC(=O)c1cccc(Nc2c3c(nc4ccccc24)CCC3)c1,N
CCOC(=O)C1CCCN(c2c(Nc3cc(C)cc(C)c3)c(=O)c2=O)C1 (stereo not drawn),N
COc1ccc(C2C(C#N)=C(N)OC3=C2C(=O)CC(C)(C)C3)cc1OC (stereo not drawn),N
CCC(O)c1nc2ccccc2n1CCCOc1cc(C)cc(C)c1 (stereo not drawn),N
O=c1nc(-c2ccc(C(F)(F)F)cc2)[nH]c2c1CSCC2,N
O=C(c1ccc(Nc2nccc(-c3cc4ccccc4s3)n2)cc1)N1CCC(N2CCCC2)CC1,N
COCCNc1ncccc1-c1nc(-c2ccc(OC)cc2)no1,N
CN(C)CC(NC1CCC2(CCNCC2)CC1)c1ccccc1 (stereo not drawn),N
CCOC(=O)c1c(N)n(-c2ccccc2OC)c2nc3ccccc3nc12,N
N=C(N)n1c(N)nc2ccccc2c1=O,N
O=C1C=C(NCCc2c[nH]cn2)CC(c2ccc(F)cc2)C1 (stereo not drawn),N
c1ccc(CSc2nc3ncncc3[nH]2)cc1,N
N=c1c2c3c(sc2ncn1CCO)CCCC3,N
CCc1c(C)nc2sc(C(=O)c3ccc(OC)cc3)c(N)c2c1C,N
Cn1c(-c2ccc(Cl)cc2)cnc1NCc1ccc(F)cc1F,N
CNC1CCCc2c1n(C)c1ccc(Cl)cc21 (stereo not drawn),N
Cc1cc(C)c2c(N)c(C(=O)c3ccc(Cl)cc3)oc2n1,N

Source: the ROBIN nucleic acid binder screens (doi:10.1002/anie.202211358).